{"sequences": {"note": "Protein sequences, listed by entry. Tags and fused reporters are not part of them. Residues count along the entry.", "UniProt O60674, 828-1132": "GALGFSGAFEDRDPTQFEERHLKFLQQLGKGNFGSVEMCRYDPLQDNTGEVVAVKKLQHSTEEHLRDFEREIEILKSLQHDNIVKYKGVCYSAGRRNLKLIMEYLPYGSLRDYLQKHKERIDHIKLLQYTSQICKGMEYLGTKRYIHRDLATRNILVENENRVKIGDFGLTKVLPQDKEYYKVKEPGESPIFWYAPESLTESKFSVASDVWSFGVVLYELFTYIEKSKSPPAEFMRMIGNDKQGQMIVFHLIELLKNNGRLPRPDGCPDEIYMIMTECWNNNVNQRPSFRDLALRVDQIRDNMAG"}, "source": "patent US9714233B2", "about": "“Processes and intermediates for making a JAK inhibitor” (Incyte Corporation, priority 2013, dated 2017)", "molecular_target": "T1, human JAK2 (a.a. 828-1132) catalytic domain (Homo sapiens, UniProt O60674)", "T1 construct": "JAK2 (a.a. 828-1132); His tag (N); made in house; host or cells: insect cells (baculovirus)", "assay": "In vitro JAK kinase assay (HTRF, phosphorylation of biotinylated peptide), JAK2", "format": "biochemical", "details": "ratio of IC50s, measured at 1 mM ATP", "note": "Some entries share one result that the patent states for a list of compounds.", "data": [{"smiles": "N#CCC1(n2cc(-c3ncnc4[nH]ccc34)cn2)CN(C2CCN(C(=O)c3ccnc(C(F)(F)F)c3F)CC2)C1", "note": "[Formula I, {1-{1-[3-fluoro-2-(trifluoromethyl)isonicotinoyl]piperidin-4-yl}-3-[4-(7H-pyrrolo[2,3-d]pyrimidin-4-yl)-1H-pyrazol-1-yl]azetidin-3-yl}acetonitrile]", "values": [{"measurement": "JAK2/JAK1 ratio", "result": "> 10"}]}]}
